From the supplement of paper PMC4862054
Most entries show no effect beyond the scatter of the controls.

Assays:
Assay in all cases: normalised response (% of control), CellTox Green; higher = less cell death (100 = DMSO, 0 = benzethonium chloride kill control)
Conditions in all cases: incubation time: 72 h
MCF-10A = tested on: MCF-10A
Method: (§1)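 DSRT, 72 h incubation, CellTox Green / CellTiter-Glo readout. Signal is normalised to DMSO and benzethonium chloride controls. Value is the normalised response at dose 2.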

HDQ-P1 = tested on: HDQ-P1
Method: as §1

DU-4475 = tested on: DU-4475
Method: as §1

HCC1599 = tested on: HCC1599
Method: as §1

BT-474 = tested on: BT-474
Method: as §1

MDA-MB-468 = tested on: MDA-MB-468
Method: as §1

HCC1937 = tested on: HCC1937
Method: as §1

MDA-MB-436 = tested on: MDA-MB-436
Method: as §1

MDA-MB-453 = tested on: MDA-MB-453
Method: as §1

CAL-85-1 = tested on: CAL-85-1
Method: as §1

CAL-51 = tested on: CAL-51
Method: as §1

CAL-120 = tested on: CAL-120
Method: as §1

HCC1143 = tested on: HCC1143
Method: as §1

MFM-223 = tested on: MFM-223
Method: as §1

CAL-148 = tested on: CAL-148
Method: as §1

BT-549 = tested on: BT-549
Method: as §1

MDA-MB-231 = tested on: MDA-MB-231
Method: as §1

Hs578T = tested on: Hs578T
Method: as §1

Compound | normalised response (MCF-10A) | normalised response (HDQ-P1) | normalised response (DU-4475) | normalised response (HCC1599) | normalised response (BT-474) | normalised response (MDA-MB-468) | normalised response (HCC1937) | normalised response (MDA-MB-436) | normalised response (MDA-MB-453) | normalised response (CAL-85-1) | normalised response (CAL-51) | normalised response (CAL-120) | normalised response (HCC1143) | normalised response (MFM-223) | normalised response (CAL-148) | normalised response (BT-549) | normalised response (MDA-MB-231) | normalised response (Hs578T)
CN1CCN(c2nc(C3=C(c4c[nH]c5ccccc45)C(=O)NC3=O)c3ccccc3n2)CC1 [Sotrastaurin] (10 nM) | 101% | 56.2% | 94.2% | 92.7% | 100% | 94.6% | 60.2% | 96.7% | 97% | 102% | 102% | 98.4% | 104% | 103% | 96.1% | 100% | 69.7% | –
CC(=O)Nc1cccc(-n2c(=O)n(C3CC3)c(=O)c3c(Nc4ccc(I)cc4F)n(C)c(=O)c(C)c32)c1 [Trametinib] (0.25 nM) | 105% | – | 112% | 117% | 91.7% | 88.2% | – | 92.5% | 111% | 97.3% | 111% | 105% | 101% | 103% | 97.4% | 102% | 91.7% | 107%
c1ccc([C@H]2CN3CCSC3=N2)cc1 [Levamisole] (10 nM) | 108% | 95.2% | 100% | 105% | 101% | 64.3% | 111% | 92.1% | 97.2% | 98.8% | 78.9% | 104% | 106% | 67.9% | – | 114% | 110% | –
Cc1ccc(NC(=O)c2ccc(CN3CCN(C)CC3)cc2)cc1Nc1nccc(-c2cccnc2)n1 [Imatinib] (10 nM) | 99.5% | – | 107% | 113% | 102% | 108% | 91.2% | 108% | 105% | 104% | 102% | 101% | 111% | 103% | 105% | 79.1% | 103% | 111%
Oc1ncnc2[nH]ncc12 [Allopurinol] (10 nM) | 66.8% | 118% | 104% | 113% | 98.7% | – | 97.4% | 104% | 94.8% | 92.6% | 92.2% | 87.2% | 110% | 103% | 106% | 99% | 100% | 66.9%
Cc1cc2c(F)c(Oc3ncnn4cc(OC[C@@H](C)O)c(C)c34)ccc2[nH]1 [Brivanib] (1 nM) | 111% | 114% | 106% | 110% | 105% | 95.4% | – | 99.7% | 101% | 91.7% | 97.3% | 104% | 106% | 77.8% | 106% | 98.7% | 105% | 83.8%
C=C(c1ccc(C(=O)O)cc1)c1cc2c(cc1C)C(C)(C)CCC2(C)C [Bexarotene] (10 nM) | 77.1% | – | 104% | 107% | 99.3% | 84.3% | 89.5% | 103% | 108% | 95.5% | 110% | 95.8% | 54.4% | 102% | – | 104% | 87.5% | 117%
CC(=O)O[C@]1(C(C)=O)CC[C@H]2[C@@H]3C=C(C)C4=CC(=O)CC[C@]4(C)[C@H]3CC[C@@]21C [Megestrol acetate] (10 nM) | 64.9% | – | 96.8% | 96.8% | 97.5% | 85.2% | 112% | 68.2% | 74.2% | 85.3% | 77.6% | 99.3% | – | 100% | 105% | – | – | 114%
CC(C)N(CCCNC(=O)Nc1ccc(C(C)(C)C)cc1)C[C@H]1O[C@@H](n2cc(Br)c3c(N)ncnc32)[C@H](O)[C@@H]1O [SGC0946] (10 nM) | 86.9% | 90.2% | 92% | 100% | 99.6% | – | 111% | 76.6% | 82.5% | 103% | 101% | 96.2% | 68.5% | 101% | 103% | 73.4% | 83.2% | 97.2%
CO[C@H](C(=O)[C@@H](O)[C@@H](C)O)[C@@H]1Cc2cc3cc(O[C@H]4C[C@@H](O[C@@H]5C[C@@H](O)[C@H](O)[C@@H](C)O5)[C@H](O)[C@@H](C)O4)c(C)c(O)c3c(O)c2C(=O)[C@H]1O[C@H]1C[C@@H](O[C@@H]2C[C@@H](O)[C@@H](O[C@@H]3C[C@](C)(O)[C@H](O)[C@@H](C)O3)[C@@H](C)O2)[C@H](O)[C@@H](C)O1 [Plicamycin] (10 nM) | 109% | 117% | 108% | 112% | 102% | – | 64% | 113% | 103% | 104% | 79.1% | 104% | 121% | 93.2% | 99.9% | 91.6% | 106% | 110%
